{"source": "patent US6010478A", "about": "“Trans-mucosal particle delivery” (PowderJect Research Limited, priority 1995, dated 2000)", "origin": "cited, not measured here", "conditions": "oral administration; cited from earlier work", "note": "At least one read-out could not be matched to a standard name with certainty.", "data": [{"molecule": "C[C@]12CC[C@H]3[C@@H](CCC4=CC(=O)CC[C@@]43C)[C@@H]1CC[C@@H]2O", "note": "[testosterone]", "values": [{"measurement": "first pass degradation", "value": 98, "unit": "%"}]}]}
